PubChem BioAssay AID686938 – Drosophila RNAi Screening Center | 2013

Purpose: 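Knock-downs reducing store-operated calcium influx in Drosophila cells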 (primary screen)
Cells: Drosophila S2R+ cells
Reagent: long dsRNA against Drosophila genes, about 0.25 µg dsRNA per well, roughly 10,000 cells
Timing: 5 days of knock-down before the calcium assay
Treatment: thapsigargin (SERCA pump blocker) to empty calcium stores; entry signal taken 4 min after adding it
Detection: 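Per-well fluo-4 fluorescence in two replicates, unnormalised, measured in resting cells and 4 min after store depletion by the SERCA blocker thapsigargin; ratio of the two present in few wells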
Direction: calcium entry signal: higher = stronger calcium signal after store depletion; resting calcium signal: higher = higher resting calcium signal
Units: calcium entry signal in fluorescence units; resting calcium signal in fluorescence units
Call rule: 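Hit if the duplicate-averaged plate z-score for entry over resting signal is under −3; wells with weak total dye signal (Fmax z < −2) or more than 5 off-targets removed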
Meaning of the calls: active = strongly reduced calcium entry; inactive = no strong reduction
The screen tested about 23,000 reagents; below is an unselected part of those that have a named target and a result. In the full data, 75 (0.33%) were called active. 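Raw plate signals without normalisation; calls rest on plate z-scores that were not deposited; ratio present for only 364 wells.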 Reagents against one gene are numbered here. Not given: the dose of the treatment.

With knock-down of Stat92E, the screen gave calcium entry signal, replicate 1 = 3.18e7; calcium entry signal, replicate 2 = 2.91e7; resting calcium signal, replicate 1 = 1.45e7; resting calcium signal, replicate 2 = 1.36e7; inactive.
Depletion of CG17648 resulted in: calcium entry signal, replicate 1 = 3.14e7; calcium entry signal, replicate 2 = 4.29e7; resting calcium signal, replicate 1 = 1.52e7; resting calcium signal, replicate 2 = 1.65e7; inactive.
CG30484 showed calcium entry signal, replicate 1 = 4.87e7; calcium entry signal, replicate 2 = 5.31e7; resting calcium signal, replicate 1 = 2.56e7; resting calcium signal, replicate 2 = 2.23e7; inactive.
Silencing of Catsup (Catecholamines up) resulted in: calcium entry signal, replicate 1 = 4.89e7; calcium entry signal, replicate 2 = 3.73e7; resting calcium signal, replicate 1 = 2.79e7; resting calcium signal, replicate 2 = 2.14e7; inactive.
vito (viriato) scored calcium entry signal, replicate 1 = 3.81e7; calcium entry signal, replicate 2 = 3.43e7; resting calcium signal, replicate 1 = 2.26e7; resting calcium signal, replicate 2 = 1.78e7; inactive.
For gukh (GUK-holder) #1, the entry reads calcium entry signal, replicate 1 = 3.40e7; calcium entry signal, replicate 2 = 3.32e7; resting calcium signal, replicate 1 = 4.04e7; resting calcium signal, replicate 2 = 1.44e7; inactive.
Silencing of gukh (GUK-holder) #2 resulted in: calcium entry signal, replicate 1 = 3.69e7; calcium entry signal, replicate 2 = 3.37e7; resting calcium signal, replicate 1 = 4.56e7; resting calcium signal, replicate 2 = 1.52e7; inactive.
Silencing of gukh (GUK-holder) #3 gave: calcium entry signal, replicate 1 = 3.07e7; calcium entry signal, replicate 2 = 2.45e7; resting calcium signal, replicate 1 = 1.57e7; resting calcium signal, replicate 2 = 1.19e7; inactive.
For Antdh (Antennal dehydrogenase), the entry reads calcium entry signal, replicate 1 = 3.15e7; calcium entry signal, replicate 2 = 3.53e7; resting calcium signal, replicate 1 = 1.72e7; resting calcium signal, replicate 2 = 1.80e7; inactive.
Depletion of CG7309 resulted in: calcium entry signal, replicate 1 = 3.36e7; calcium entry signal, replicate 2 = 3.46e7; resting calcium signal, replicate 1 = 1.67e7; resting calcium signal, replicate 2 = 1.58e7; inactive.
With knock-down of CG17698 the results were calcium entry signal, replicate 1 = 2.51e7; calcium entry signal, replicate 2 = 4.72e7; resting calcium signal, replicate 1 = 1.28e7; resting calcium signal, replicate 2 = 2.09e7; inactive.
Depletion of hpRNA:CR18854 (hairpin RNA:CR18854) gave: calcium entry signal, replicate 1 = 3.51e7; calcium entry signal, replicate 2 = 3.97e7; resting calcium signal, replicate 1 = 1.77e7; resting calcium signal, replicate 2 = 1.76e7; inactive.
CG12520 showed calcium entry signal, replicate 1 = 2.58e7; calcium entry signal, replicate 2 = 3.77e7; resting calcium signal, replicate 1 = 1.32e7; resting calcium signal, replicate 2 = 1.56e7; inactive.
Against CG42810 the deposit lists calcium entry signal, replicate 1 = 3.36e7; calcium entry signal, replicate 2 = 2.18e7; resting calcium signal, replicate 1 = 1.71e7; resting calcium signal, replicate 2 = 1.11e7; inactive.
Against pall (pallbearer), the entry reads calcium entry signal, replicate 1 = 4.08e7; calcium entry signal, replicate 2 = 3.91e7; resting calcium signal, replicate 1 = 3.05e7; resting calcium signal, replicate 2 = 1.63e7; inactive.
With knock-down of CG16904, the record shows calcium entry signal, replicate 1 = 3.00e7; calcium entry signal, replicate 2 = 4.33e7; resting calcium signal, replicate 1 = 1.37e7; resting calcium signal, replicate 2 = 1.85e7; inactive.
With knock-down of CG14659 the results were calcium entry signal, replicate 1 = 2.62e7; calcium entry signal, replicate 2 = 5.93e7; resting calcium signal, replicate 1 = 1.38e7; resting calcium signal, replicate 2 = 2.47e7; inactive.
Silencing of Fitm (Fat storage inducing transmembrane protein) gave: calcium entry signal, replicate 1 = 5.95e7; calcium entry signal, replicate 2 = 4.32e7; resting calcium signal, replicate 1 = 3.75e7; resting calcium signal, replicate 2 = 1.74e7; inactive.
CG18599 #1 showed calcium entry signal, replicate 1 = 4.60e7; calcium entry signal, replicate 2 = 4.12e7; resting calcium signal, replicate 1 = 4.53e7; resting calcium signal, replicate 2 = 1.97e7; inactive.
Against CG18599 #2 the deposit lists calcium entry signal, replicate 1 = 2.03e7; calcium entry signal, replicate 2 = 3.82e7; resting calcium signal, replicate 1 = 1.23e7; resting calcium signal, replicate 2 = 2.10e7; inactive.
Against CG18599 #3 the deposit lists calcium entry signal, replicate 1 = 4.04e7; calcium entry signal, replicate 2 = 4.04e7; resting calcium signal, replicate 1 = 1.85e7; resting calcium signal, replicate 2 = 1.95e7; inactive.
